According to PubChem BioAssay AID214 (DTP/NCI, 2004):
The list shows only some results of the screen, not a fair sample: it is rich in T/C values a quarter to a half above the control, in often repeated tests (any T/C) and in doses without a T/C. Other doses and runs of a compound stand elsewhere. T/C: endpoint of the treated group in % of that of the vehicle group. Schedules are NCI's codes, read here as Q, the interval in days (D) or hours (H), X, the number of doses. Some T/C values are followed by the survivors on the day toxicity was checked, most often the fifth; without a count, all were alive then. Some entries hold several experiments; the values are given in rising order. Additions like (4×) stand for listed records that agree. Some entries give survivors of the animals treated and no T/C: the source files T/C as zero there, which appears to mark a toxic dose or a test without result, not a measured value. Counts of survivors are from the toxicity check (mostly the fifth day) where no day follows; animals may have died later.

Tested on: B6C3F1 mice, colon carcinoma 38 s.c., T/C
Assay: NCI In Vivo Anticancer Drug Screen. Data for tumor model Colon Carcinoma 38 (subcutaneous) in B6C3F1 mice
Conditions: T/C endpoint: median tumor weight (est.), schedule: Q07DX002 (ip), higher T/C = larger tumour; for T/C: evaluated on day 20
Protocol: The antitumor activity of compounds was measured in mice bearing transplantable tumors. Survival or tumor size were measured and the results are expressed as the measurement made in the treated group (T) divided by the measurement made in the vehicle treated control group (C). The tumor model used in this assay is Colon Carcinoma 38 (subcutaneous) in B6C3F1 mice

[1] = dose: 200.0 mg/kg/injection, vehicle: saline with Tween-80
[2] = dose: 400.0 mg/kg/injection, vehicle: saline with Tween-80
[3] = dose: 40.0 mg/kg/injection, vehicle: sodium bicarbonate
[4] = dose: 60.0 mg/kg/injection, vehicle: sodium bicarbonate
[5] = dose: 90.0 mg/kg/injection, vehicle: sodium bicarbonate
[6] = dose: 135.0 mg/kg/injection, vehicle: sodium bicarbonate
[7] = dose: 25.0 mg/kg/injection, vehicle: saline with Tween-80
[8] = dose: 50.0 mg/kg/injection, vehicle: saline with Tween-80
[9] = dose: 100.0 mg/kg/injection, vehicle: saline with Tween-80
[10] = dose: 100.0 mg/kg/injection, vehicle: Klucel (hydroxypropylcellulose) (HPC)
[11] = dose: 200.0 mg/kg/injection, vehicle: Klucel (hydroxypropylcellulose) (HPC)
[12] = dose: 800.0 mg/kg/injection, vehicle: Klucel (hydroxypropylcellulose) (HPC)

O=C1N[C@@H]2C(=C[C@H](O)[C@@H](O)[C@H]2O)c2cc3c(c(O)c21)OCO3
T/C (dose: 2.5 mg/kg/injection, vehicle: saline with Tween-80): 125 % of control

ClCCCN1CCN(CCCl)CC1
survivor count (dose: 40.0 mg/kg/injection, vehicle: saline): 0 of 10 on day 20 | survivor count (dose: 80.0 mg/kg/injection, vehicle: saline): 0 of 10 on day 20

O=c1[nH]cccc1O
T/C (dose: 62.5 mg/kg/injection, vehicle: saline with Tween-80): 147 % of control | survivor count (dose: 1000.0 mg/kg/injection, vehicle: saline with Tween-80): 6 of 10 on day 20

CCCCCCCCCCCCCCCCCC(=O)Nc1ccn(C2OC(CO)C(O)C2O)c(=O)n1 (configuration not stated)
survivor count [1]: 5 of 10 on day 20

CCCCNc1ccc2nnc(C)n2n1
T/C (dose: 100.0 mg/kg/injection, vehicle: DMSO): 132 % of control | survivor count (dose: 400.0 mg/kg/injection, vehicle: DMSO): 2 of 10 on day 20 | survivor count (dose: 800.0 mg/kg/injection, vehicle: DMSO): 0 of 10 on day 20

CCC(NC(N)=O)C(CC)NC(N)=O (configuration not stated)
survivor count [1]: 1 of 10 on day 20 | survivor count [2]: 0 of 10 on day 20

C=C1COC(O)(C2OCOC(C3CC(=O)NC(=O)C3)C2O)C1C (configuration not stated)
T/C (dose: 62.5 micrograms/kg/injection, vehicle: water): 140 % of control | survivor count (dose: 125.0 micrograms/kg/injection, vehicle: water): 4 of 10 on day 20 | survivor count (dose: 250.0 micrograms/kg/injection, vehicle: water): 0 of 10 on day 20

CN(Cc1cnc2nc(N)nc(N)c2n1)c1ccc(C(=O)N[C@@H](CCC(=O)O)C(=O)O)cc1
T/C (dose: 26.0 mg/kg/injection, vehicle: sodium bicarbonate): 20 [9 of 10 alive on day 20], 68 [7 of 10 alive on day 20], 81, 83, 87 [9 of 10 alive on day 20], 96, 96 [8 of 10 alive on day 20], 105, 124, 126, 177 % of control | T/C [3]: 44 [9 of 10 alive on day 20], 72 [9 of 10 alive on day 20], 91, 94 [9 of 10 alive on day 20], 111, 123, 124 % of control | survivor count [3]: 2 of 10 on day 20, 4 of 10 on day 20, 5 of 10 on day 20 | T/C [4]: 53 [9 of 10 alive on day 20], 65 [9 of 10 alive on day 20], 86, 92, 101 % of control [8 of 10 alive on day 20] | survivor count [4]: 0 of 10 on day 20, 2 of 10 on day 20, 3 of 10 on day 20, 6 of 10 on day 20 | T/C [5]: 81, 90, 100, 105 % of control | survivor count [5]: 0 of 10 on day 20, 2 of 9 on day 20, 3 of 10 on day 20, 6 of 10 on day 20 | T/C [6]: 17, 47, 76, 90 % of control [7 of 10 alive on day 20] | survivor count [6]: 0 of 10 on day 20, 0 of 9 on day 20, 3 of 10 on day 20

CCC1=C2C(=O)c3ccccc3C2=C(C)S(=O)(=O)O1
T/C (dose: 12.5 mg/kg/injection, vehicle: saline with Tween-80): 145 % of control | T/C [7]: 136 % of control [9 of 10 alive on day 20] | T/C [8]: 130 % of control | survivor count [9]: 5 of 10 on day 20 | survivor count [1]: 0 of 10 on day 20

O=C(CCBr)N1CCN(C(=O)CCBr)CC1
survivor count (dose: 320.0 mg/kg/injection, vehicle: saline with Tween-80): 2 of 10 on day 20 and 5 of 10 on day 20 | survivor count (dose: 640.0 mg/kg/injection, vehicle: saline with Tween-80): 0 of 10 on day 20, 2 of 10 on day 20, 4 of 10 on day 20 | survivor count (dose: 1280.0 mg/kg/injection, vehicle: saline with Tween-80): 0 of 10 on day 20

OC(CBr)C(O)C(O)C(O)CBr (configuration not stated)
T/C [10]: 53, 54, 58, 64, 66, 79 (2×), 91, 93 (2×), 120 % of control | T/C [11]: 30, 41, 44 (2×), 46, 49, 52, 53 [9 of 10 alive on day 20], 57, 79, 158 % of control | T/C (dose: 400.0 mg/kg/injection, vehicle: Klucel (hydroxypropylcellulose) (HPC)): 6, 7 [9 of 10 alive on day 20], 8 [9 of 10 alive on day 20], 19, 24, 28 [9 of 10 alive on day 20], 29, 33 (2×), 69, 81 % of control | T/C [12]: 40 % of control [7 of 10 alive on day 20] | survivor count [12]: 0 of 10 on day 20, 1 of 10 on day 20, 2 of 10 on day 20, 4 of 10 on day 20, 6 of 10 on day 20

C[CH2][Sn]([CH2]C)([CH2]C(=O)OC)[CH2]C(=O)OC
survivor count [7]: 4 of 10 on day 20 | survivor count [8]: 0 of 10 on day 20 | survivor count [9]: 0 of 10 on day 20 | survivor count [1]: 0 of 10 on day 20 | survivor count [2]: 0 of 10 on day 20

COC12C(COC(=O)NCCO)C3=C(C(=O)C(C)=C(N)C3=O)N1CC1NC12 (configuration not stated)
survivor count [10]: 4 of 10 on day 20 | survivor count [11]: 0 of 10 on day 20

COCCCNC1=C(C#N)C(=O)NC(c2cccc([N+](=O)[O-])c2)S1 (configuration not stated)
T/C (dose: 1800.0 mg/kg/injection, vehicle: saline with Tween-80): 147 % of control [9 of 10 alive on day 20]

CNC(=O)c1cccc2c(Nc3ccc(NS(C)(=O)=O)cc3OC)c3cccc(C)c3nc12
survivor count (dose: 100.0 mg/kg/injection, vehicle: water): 0 of 10 on day 20

O=C(c1cccnc1)c1cc(-c2ccccn2)c(=O)n2ccccc12
T/C (dose: 100.0 mg/kg/injection, vehicle: saline): 146 % of control | T/C (dose: 1600.0 mg/kg/injection, vehicle: saline): 145 % of control [8 of 10 alive on day 20]
